From patent publication EP0665239A1 (CONSIGLIO NAZIONALE DELLE RICERCHE, priority 1994, dated 1995)
HELM strings list residues between dots; [ac] is acetyl, [am] amide, other brackets name non-standard units.

Tests used:
[1] = general procedure: Fmoc solid-phase peptide synthesis in flow; PepSyn KA; details: whole synthesis, HPLC peak area, scale 0.09 mmole
[2] = general procedure: Fmoc solid-phase peptide synthesis in flow; PepSyn KA resin; details: whole synthesis, HPLC peak area, scale of the general procedure 0.09 mmole (1 g resin)

| Substance | crude HPLC purity [1] | crude HPLC purity [2] |
| --- | --- | --- |
| PEPTIDE1{R.R.I.R.P.R.P.P.R.L.P.R.P.R.P.R.P.L.P.F.P.R.P}$$$$V2.0 | 78% | – |
| PEPTIDE1{R.R.I.R.P.R.P.P.R.L.P.R.P.R.P.R.P.L}$$$$V2.0 | about 80% | – |
| PEPTIDE1{R.F.R.P.P.I.R.R.P.P.I.R.P.P.F.Y.P.P.F.R.P.P.I.R.P}$$$$V2.0 | 71% | – |
| PEPTIDE1{R.R.I.R.P.R.P.P.R.L.P.R.P.R.P.R.P.L.P.F.P.R.P.G.P.R.P.I.P.R.P.L.P.F.P}$$$$V2.0 | – | about 66% |
